Experimental data published in publication PMC8816931.
Read-outs that look alike come from different tables or passages of the source. Results are given in words; binding and its absence hold for the method and conditions named. In cells and extracts the contact can be indirect. Some binding calls cover weakened binding; strength is not graded here. One block for each molecule: values may come before it.

Chains of the proteins cited; added tags and fusions are not shown. Residues count along the entry.
UniProt O35516, residues 26-2473: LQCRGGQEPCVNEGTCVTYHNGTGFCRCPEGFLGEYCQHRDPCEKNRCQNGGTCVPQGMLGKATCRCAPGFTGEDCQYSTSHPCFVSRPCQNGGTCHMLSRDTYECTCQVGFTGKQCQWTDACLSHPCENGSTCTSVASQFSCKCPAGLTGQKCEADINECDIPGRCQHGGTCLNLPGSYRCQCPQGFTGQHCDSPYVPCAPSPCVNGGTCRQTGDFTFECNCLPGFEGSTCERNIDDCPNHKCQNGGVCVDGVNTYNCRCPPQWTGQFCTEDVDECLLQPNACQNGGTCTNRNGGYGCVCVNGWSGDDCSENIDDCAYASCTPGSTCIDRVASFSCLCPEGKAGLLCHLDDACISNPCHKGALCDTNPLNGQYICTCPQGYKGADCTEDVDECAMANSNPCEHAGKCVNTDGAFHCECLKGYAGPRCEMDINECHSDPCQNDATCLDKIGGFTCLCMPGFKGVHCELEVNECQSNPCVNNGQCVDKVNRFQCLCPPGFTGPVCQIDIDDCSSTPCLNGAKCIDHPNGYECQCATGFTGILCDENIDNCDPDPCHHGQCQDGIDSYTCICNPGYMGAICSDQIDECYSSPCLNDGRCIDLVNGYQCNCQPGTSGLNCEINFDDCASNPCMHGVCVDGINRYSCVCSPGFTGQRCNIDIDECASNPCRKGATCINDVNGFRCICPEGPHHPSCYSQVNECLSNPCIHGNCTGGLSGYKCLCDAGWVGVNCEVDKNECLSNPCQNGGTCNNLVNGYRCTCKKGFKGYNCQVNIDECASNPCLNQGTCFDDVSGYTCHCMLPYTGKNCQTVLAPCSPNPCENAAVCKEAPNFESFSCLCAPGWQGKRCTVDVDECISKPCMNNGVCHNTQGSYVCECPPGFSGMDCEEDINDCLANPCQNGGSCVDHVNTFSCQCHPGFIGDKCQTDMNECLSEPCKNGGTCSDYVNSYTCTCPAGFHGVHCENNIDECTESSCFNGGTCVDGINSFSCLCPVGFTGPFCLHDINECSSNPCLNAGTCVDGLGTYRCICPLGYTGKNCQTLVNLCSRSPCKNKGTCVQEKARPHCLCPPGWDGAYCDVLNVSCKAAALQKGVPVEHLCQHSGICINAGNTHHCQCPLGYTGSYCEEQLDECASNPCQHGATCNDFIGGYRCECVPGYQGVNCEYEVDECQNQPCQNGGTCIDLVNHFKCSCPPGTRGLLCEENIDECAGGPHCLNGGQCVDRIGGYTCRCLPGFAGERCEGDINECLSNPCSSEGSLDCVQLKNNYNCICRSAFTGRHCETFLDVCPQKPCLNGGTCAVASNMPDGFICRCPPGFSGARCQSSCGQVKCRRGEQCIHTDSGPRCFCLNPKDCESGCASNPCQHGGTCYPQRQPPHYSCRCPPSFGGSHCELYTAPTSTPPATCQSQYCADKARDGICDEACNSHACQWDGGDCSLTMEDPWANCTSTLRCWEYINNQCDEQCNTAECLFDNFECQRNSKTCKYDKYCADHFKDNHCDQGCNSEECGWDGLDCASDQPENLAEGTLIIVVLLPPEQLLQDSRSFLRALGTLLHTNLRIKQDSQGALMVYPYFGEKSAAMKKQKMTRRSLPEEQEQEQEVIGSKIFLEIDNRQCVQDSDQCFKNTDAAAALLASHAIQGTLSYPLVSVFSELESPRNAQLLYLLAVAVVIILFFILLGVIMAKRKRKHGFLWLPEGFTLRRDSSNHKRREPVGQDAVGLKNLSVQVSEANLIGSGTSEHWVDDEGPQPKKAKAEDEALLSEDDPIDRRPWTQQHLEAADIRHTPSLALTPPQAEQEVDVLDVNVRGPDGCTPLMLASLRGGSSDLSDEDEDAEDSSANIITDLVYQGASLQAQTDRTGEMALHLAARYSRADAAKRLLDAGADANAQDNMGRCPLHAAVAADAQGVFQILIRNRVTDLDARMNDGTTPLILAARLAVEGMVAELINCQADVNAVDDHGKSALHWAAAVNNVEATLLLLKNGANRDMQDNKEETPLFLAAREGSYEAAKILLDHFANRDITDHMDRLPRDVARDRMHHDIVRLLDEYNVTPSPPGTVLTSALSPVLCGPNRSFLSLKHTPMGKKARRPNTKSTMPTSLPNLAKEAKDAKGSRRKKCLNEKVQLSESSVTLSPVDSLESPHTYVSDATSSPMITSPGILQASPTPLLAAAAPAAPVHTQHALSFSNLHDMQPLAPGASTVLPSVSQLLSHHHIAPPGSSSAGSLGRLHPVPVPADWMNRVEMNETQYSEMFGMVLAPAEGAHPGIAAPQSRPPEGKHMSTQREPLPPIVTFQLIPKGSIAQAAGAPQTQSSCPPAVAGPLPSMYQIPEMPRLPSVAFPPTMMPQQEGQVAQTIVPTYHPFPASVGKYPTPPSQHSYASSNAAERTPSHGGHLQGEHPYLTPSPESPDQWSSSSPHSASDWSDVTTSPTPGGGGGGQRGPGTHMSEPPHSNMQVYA
UniProt Q6QI06: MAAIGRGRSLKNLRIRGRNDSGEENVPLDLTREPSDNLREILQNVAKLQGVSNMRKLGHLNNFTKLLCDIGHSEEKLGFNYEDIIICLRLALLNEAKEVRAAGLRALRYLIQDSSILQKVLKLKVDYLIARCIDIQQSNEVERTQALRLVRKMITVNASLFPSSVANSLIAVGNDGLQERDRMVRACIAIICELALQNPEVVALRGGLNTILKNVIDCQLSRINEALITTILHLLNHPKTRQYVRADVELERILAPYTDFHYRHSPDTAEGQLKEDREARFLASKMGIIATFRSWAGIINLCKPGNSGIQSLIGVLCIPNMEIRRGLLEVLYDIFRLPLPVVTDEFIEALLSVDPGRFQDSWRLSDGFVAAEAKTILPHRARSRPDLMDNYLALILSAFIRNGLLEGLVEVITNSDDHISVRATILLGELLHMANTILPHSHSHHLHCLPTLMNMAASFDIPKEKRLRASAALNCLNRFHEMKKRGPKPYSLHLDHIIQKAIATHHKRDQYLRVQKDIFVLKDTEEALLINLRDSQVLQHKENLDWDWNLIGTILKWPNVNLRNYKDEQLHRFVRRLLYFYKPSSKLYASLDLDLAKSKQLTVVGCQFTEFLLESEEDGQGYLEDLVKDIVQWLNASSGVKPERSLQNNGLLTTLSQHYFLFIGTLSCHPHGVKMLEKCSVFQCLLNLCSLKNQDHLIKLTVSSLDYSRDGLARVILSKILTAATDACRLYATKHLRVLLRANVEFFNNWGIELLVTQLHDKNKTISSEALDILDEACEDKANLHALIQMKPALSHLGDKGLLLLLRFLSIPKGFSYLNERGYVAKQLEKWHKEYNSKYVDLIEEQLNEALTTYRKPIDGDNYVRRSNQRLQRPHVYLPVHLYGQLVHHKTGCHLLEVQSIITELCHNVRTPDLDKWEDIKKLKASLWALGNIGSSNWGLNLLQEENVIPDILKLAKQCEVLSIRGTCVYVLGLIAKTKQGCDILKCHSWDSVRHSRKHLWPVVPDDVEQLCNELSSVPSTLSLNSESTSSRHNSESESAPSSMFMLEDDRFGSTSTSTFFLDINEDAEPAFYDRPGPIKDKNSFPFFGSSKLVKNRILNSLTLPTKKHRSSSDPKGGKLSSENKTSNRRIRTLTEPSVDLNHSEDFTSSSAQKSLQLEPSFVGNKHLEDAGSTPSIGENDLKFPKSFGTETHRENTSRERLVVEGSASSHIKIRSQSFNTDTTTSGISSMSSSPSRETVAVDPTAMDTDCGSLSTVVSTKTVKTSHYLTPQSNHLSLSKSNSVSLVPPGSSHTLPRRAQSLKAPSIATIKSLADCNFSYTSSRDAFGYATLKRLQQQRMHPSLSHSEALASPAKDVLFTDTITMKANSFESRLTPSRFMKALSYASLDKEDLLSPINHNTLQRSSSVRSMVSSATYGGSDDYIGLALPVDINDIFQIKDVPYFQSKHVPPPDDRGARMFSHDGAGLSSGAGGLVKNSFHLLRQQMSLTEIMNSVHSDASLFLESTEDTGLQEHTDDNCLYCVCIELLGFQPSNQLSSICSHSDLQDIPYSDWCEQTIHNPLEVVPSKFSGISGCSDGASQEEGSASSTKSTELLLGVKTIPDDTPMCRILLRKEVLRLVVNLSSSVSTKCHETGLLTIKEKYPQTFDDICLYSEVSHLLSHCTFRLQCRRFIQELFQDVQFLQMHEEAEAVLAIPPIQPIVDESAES
UniProt O88516, residues 33-592: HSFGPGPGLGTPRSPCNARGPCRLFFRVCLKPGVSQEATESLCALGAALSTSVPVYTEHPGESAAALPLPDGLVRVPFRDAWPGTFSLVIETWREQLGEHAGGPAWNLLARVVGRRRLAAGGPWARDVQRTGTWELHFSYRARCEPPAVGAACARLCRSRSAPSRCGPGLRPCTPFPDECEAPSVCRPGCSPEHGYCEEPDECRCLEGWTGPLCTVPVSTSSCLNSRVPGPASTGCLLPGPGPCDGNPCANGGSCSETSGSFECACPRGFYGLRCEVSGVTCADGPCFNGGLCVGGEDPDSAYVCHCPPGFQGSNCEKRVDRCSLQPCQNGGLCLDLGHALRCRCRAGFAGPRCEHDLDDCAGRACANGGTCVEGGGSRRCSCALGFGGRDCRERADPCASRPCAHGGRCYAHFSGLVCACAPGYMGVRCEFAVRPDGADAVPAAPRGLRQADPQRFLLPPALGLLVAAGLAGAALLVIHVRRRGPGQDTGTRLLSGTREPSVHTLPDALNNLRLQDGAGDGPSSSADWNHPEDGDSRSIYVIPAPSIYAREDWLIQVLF

What was measured:
Assay in all cases: co-IP; 2.5 ug rabbit antibody coupled to protein A/G beads, lysate of 400 mouse oocytes, IP buffer (20 mM Tris-HCl pH 8.0, 10 mM EDTA, 1 mM EGTA, 150 mM NaCl, 0.05% Triton X-100, 0.05% Nonidet P-40), overnight at 4 °C, three washes, SDS-PAGE and western blot; rabbit IgG as control
[1] = biological target: Notch2 (mouse (endogenous in oocytes)) (UniProt O35516)
[2] = biological target: p-RICTOR (mouse (endogenous in oocytes)) (UniProt Q6QI06)
[3] = biological target: Notch2 (mouse (endogenous in oocytes)) (UniProt O35516); remark: listed apart in the source

binding [1]: binds
Molecule: DLL3 (from UniProt O88516 33-592) (ligand)

binding [2]: no binding
Molecule: Notch2 (from UniProt O35516 26-2473) (receptor)

binding [3]: binds
B1: MIB2 (enzyme, UniProt Q8R516 1-973)
chain: MDLDPHAGVQVGMRVVRGMDWKWGQQDGGEGGVGTVVELGRHGSPSTPDRTVVVQWDQGTRTNYRAGYQGAHDLLLYDNAQIGIRHPNIICDCCKKHGLRGMRWKCRVCFDYDLCTQCYMHNKHDLTHAFERYETSHSRPVTLSPRQGLPRIPLRGIFQGAKVVRGPDWEWGSQDGGEGKTGRVVDIRGWDVETGRSVASVTWADGTTNVYRVGHKGKVDLRCVGEAAGGFYYKEHLPKLGKPAELQRRVSADGQPFQRGDKVKCLLDTDVLRDMQEGHGGWNPRMAEFIGQMGTVHRITDRGDVRVQFNHETRWTFHPGALTKHNSFWVGDVVRVIGDLDTVKRLQAGHGEWTDDMAPALGRVGKVVKVFGDGNLRVAVGGQRWTFSPSCLVAYRPEEDANLDVAERARENKSAASVSVAGSLSVALDKLRTQKSDPEHPGRLVVEAALGNVARALDLLRRHPEQASYHPALVVDTKNQGRTALQVAAYLGQVELVRLLLQARASMDLPDDEGNTVLHYTAMGNQPEATRVLLSAGCAVDARNGTRSTALHVAVQRGFLEVVKILCERGCDVNLPDAHADTPLHSAISAGAGASSIVEVLTEVPGIDVTATNSQGFTLLHHASLKGHVLAVRKILARARQLVDAKKEDGFTALHLAALNNHREVAQVLIREGRCDVNVRNRKLQSPLHLAVQQAHLGLVPLLVDAGCSVNTEDEEGDTALHVALQRHQLLPLVADRAGGDPGPLQLLSRLQASGLPGCTELTVGAAVACFLALEGADVSYANHRGRSPLDLATEGRVLKALQGCAQRFRERQAGGGGGVPPGPRHVLSTPNTVTNLHVSGTAGPEAAECLVCSELALLILFSPCQHRTVCEECARRMKKCIRCQVVISKKLRPDGSEVVNAIQVPGPPRQLVEELQSRYRQMEERITCPICIDSHIRLVFQCGHGACAPCGAALNACPICRQPIRDRIQIFV
